Test results published in paper doi:10.1101/2023.02.07.527531.
These are yes or no findings as the source states them, for the method shown. In cells and extracts the contact can be indirect. A yes stands for co-enrichment or nearness to the bait. Other partners may have been found.

By UniProt entry, the sequences of proteins in these tests, tags left out. Where a name states a change or a piece, a line headed by the entry shows the natural chain unless it says otherwise.
UniProt P0AE72, whole entry, stated change not applied: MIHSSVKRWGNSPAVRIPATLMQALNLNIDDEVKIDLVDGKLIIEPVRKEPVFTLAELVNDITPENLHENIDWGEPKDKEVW

Target: FLAG-MazE (E. coli) (UniProt P0AE72)
Experiment: affinity purification with mass spectrometry

Substance: MazF(E24A) (from UniProt P0AE70 1-111) (enzyme)
- binding: binds
